No constants are given. Whether binding was seen depends on the method and setting. Some binding calls cover weakened binding; strength is not graded here.
Target: T1, NMT2 (115–496), NMT catalytic domain (human) (UniProt O60551)
T1 sequence: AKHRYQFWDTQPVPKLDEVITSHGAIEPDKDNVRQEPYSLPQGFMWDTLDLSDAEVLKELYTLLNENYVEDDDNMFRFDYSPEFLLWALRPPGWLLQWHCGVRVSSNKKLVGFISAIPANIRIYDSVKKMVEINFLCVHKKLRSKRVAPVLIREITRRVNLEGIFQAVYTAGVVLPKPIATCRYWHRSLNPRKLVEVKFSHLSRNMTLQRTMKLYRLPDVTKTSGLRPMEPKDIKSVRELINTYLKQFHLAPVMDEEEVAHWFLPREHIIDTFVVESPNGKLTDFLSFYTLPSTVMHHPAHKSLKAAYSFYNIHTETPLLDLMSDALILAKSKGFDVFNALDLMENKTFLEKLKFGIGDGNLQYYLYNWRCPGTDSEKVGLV
Assay: crystal structure; NMT2 8 mg/ml in 25 mM Tris-HCl pH 7.5, 120 mM NaCl, 1 mM DTT, 1 mM MgCl2, with 0.35 mM myristoyl-CoA and 3.5 mM KVLSKIF; well 22% PEG 8000, 0.1 M Bis Tris pH 6.5; hanging drop; both purified

binding: binds
B1: KVLSKIF peptide (ARF6 N-terminus without G2) (peptide)
peptide: KVLSKIF
modifications: myristoyl on the ε-amine of the lysine (Lys3), formed in the crystal (product)
